# Data as given in paper PMC9803352.
# Protein sequences, listed by entry. Tags and fused reporters are not part of them. Lines headed by an entry give the natural chain unless they say otherwise; changes in a name come on top.
# UniProt Q14194: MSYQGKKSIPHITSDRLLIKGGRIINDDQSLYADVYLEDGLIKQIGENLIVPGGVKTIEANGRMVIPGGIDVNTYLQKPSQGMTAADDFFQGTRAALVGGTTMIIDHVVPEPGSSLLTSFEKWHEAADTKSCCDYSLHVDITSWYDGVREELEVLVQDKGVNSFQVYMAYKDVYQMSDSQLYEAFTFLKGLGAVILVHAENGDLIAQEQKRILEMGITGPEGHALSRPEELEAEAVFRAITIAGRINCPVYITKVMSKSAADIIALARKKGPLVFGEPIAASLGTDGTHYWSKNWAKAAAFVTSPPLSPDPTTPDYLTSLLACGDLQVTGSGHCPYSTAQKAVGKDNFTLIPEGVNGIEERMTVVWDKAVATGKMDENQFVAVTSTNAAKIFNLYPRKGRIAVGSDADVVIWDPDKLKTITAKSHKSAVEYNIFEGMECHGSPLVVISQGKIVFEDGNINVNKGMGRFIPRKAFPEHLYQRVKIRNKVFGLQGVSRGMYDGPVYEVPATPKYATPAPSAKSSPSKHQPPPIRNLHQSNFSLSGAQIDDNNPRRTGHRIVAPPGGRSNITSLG
# No constants are given. Whether binding was seen depends on the method and setting. In cells and extracts the contact can be indirect. Some entries that bind do so weakly or less than the wild type.
# Molecular target: Myc-tagged CRMP1B-wildtype (human) (UniProt Q14194)
# Assay: co-IP; HEK293T cells coexpressing Myc-tagged CRMP1B-wildtype and a V5-tagged CRMP1B; lysed in IP150 buffer (20 mM Tris-HCl pH 7.4, 150 mM NaCl, 5 mM EDTA, 1% Triton X-100); anti-c-Myc (9E10) agarose overnight at 4°C; anti-V5 and anti-Myc immunoblots
row,binding,Substance
1,binds,V5-tagged CRMP1B-P475L (from UniProt Q14194-1 1-572)
2,binds,V5-tagged CRMP1B-T313M (from UniProt Q14194-1 1-572)
3,binds,V5-tagged CRMP1B-wildtype (from UniProt Q14194-1 1-572)
